# According to patent US20230340146A1 (US Dept. of Health and Human Services, published 2023):
# Results are given in words; binding and its absence hold for the method and conditions named.
# T1: #16
# T1 sequence (peptide): LEETLAEFWARLLERLFK
# T2: #13
# T2 sequence (peptide): ELYTQNARAFRDLYSELR
# Assays:
# #16 = target: T1, #16; assay: ELISA on peptides of the GPC1 peptide library
# #13 = target: T2, #13; assay: ELISA on peptides of the GPC1 peptide library
binder,measurement,setting,value
"D4 camel single-domain antibody (VHH, the methods describe D4 at 1 ug/ml detected with anti-FLAG; also called D4 antibody; D4 clone; not shown: FLAG and His tags (detected with anti-FLAG; 'His-tagged D4')) VHH: QVQLVESGGGLVQPGGSLRLSCVASGYSYSIGYMAWFRQAPGKERAWVASRYTGDGGAVFDDAVKGRFTTSQESAGNTFDLQMDSLKPEDTAMYYCAAKGPGFGRWEYWGRGTQVTVSS",binding,#16,no binding (tested: not given)
same,binding,#13,no binding (tested: not given)
